Assay results from PubChem BioAssay AID1794845 (National Center for Advancing Translational Sciences (NCATS), 2023).
In all, about 6,900 compounds went through this assay and fewer than 10 were called active. Calls come from the whole dose curve; as a rule, active = well fitted curve in the direction sought with a large enough effect; inconclusive = small, poorly fitted or top-dose-only effect, or another doubt; inactive = no such curve, though single readings can be large or run the other way. This is one part of the list.

Protein sequences, listed by entry. Tags and fused reporters are not part of them. Lines headed by an entry give the natural chain unless they say otherwise; changes in a name come on top.
UniProt C7C422: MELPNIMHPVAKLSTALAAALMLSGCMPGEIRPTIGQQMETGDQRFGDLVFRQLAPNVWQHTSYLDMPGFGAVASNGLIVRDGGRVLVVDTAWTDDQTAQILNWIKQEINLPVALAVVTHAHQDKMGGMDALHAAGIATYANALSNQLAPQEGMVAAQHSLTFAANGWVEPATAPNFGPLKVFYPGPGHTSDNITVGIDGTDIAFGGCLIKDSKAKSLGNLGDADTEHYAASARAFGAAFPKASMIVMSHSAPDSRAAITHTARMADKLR

Target: Metallo-beta-lactamase type 2 (Klebsiella pneumoniae) (UniProt C7C422)
Test: qHTS to identify inhibitors of the New Delhi Metallo-beta-lactamase (NDM): primary screen against the NCATS Gemini Collection; note: % of control where 0% means no effect
Settings: NDM-1 enzyme, meropenem hydrolysis, absorbance 300 nm; at 38.4 µM (top of the series) unless noted
Procedure, shortened: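 Meropenem hydrolysis (50 uM final) by 2 nM NDM-1 read as 300 nm absorbance after 30 min, following >30 min compound–enzyme preincubation in HEPES pH 7.0 with 1 uM ZnSO4 and 0.01% Tween20.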

SMILES | activity % (negative = inhibition)
COc1cccc(CC(=O)N[C@@H]2CN(c3ncccn3)C[C@H]2CO)c1 | inactive: 13.5%
CS(=O)(=O)N1C[C@H]2CCN(C(=O)c3cc(F)ccc3F)C[C@H]21 | inactive: 31.1%
COc1cc(CNCc2ccccc2C)ccc1OCC(O)CN1CCC(O)CC1 (stereo not drawn) | inactive: -1.14%
CN(C)C[C@@H]1CN(C2CCOCC2)C[C@H]1NC(=O)Cc1ccccc1Cl | inactive: 0.861%
O=C(NC[C@H]1O[C@@H](CC(=O)N2CCN(c3ccccn3)CC2)[C@H](O)[C@@H]1O)c1ccco1 | inactive: 0.625% [at 57.5 µM]
Cn1cc(-c2nc(N3CCOCC3)cc3c2CN(CC2CC2)C3=O)cn1 | inactive: 3.84% [at 57.5 µM]
O=C(N[C@H](C1CCNCC1)C1CC(O)C1)c1ccc2nccnc2c1 (stereo partly drawn) | inactive: 28.9%
O=C(NC1CCN(c2ccc3nnc(-c4ccccc4)n3n2)CC1)C1CCCC1 | inactive: 8.3%
Cc1cc(C(=O)N2CCCCCC2CN2CCC(C)CC2)nn1C (stereo not drawn) | inactive: -0.739%
Cc1noc(C)c1-c1cnc(Nc2ccc(CN3CCN(C)CC3)cc2)c2c1CCO2 | inactive: 9.84% [at 57.5 µM]
CCN(Cc1ccncc1)C(=O)c1coc(COc2cccc(C(F)(F)F)c2)n1 | inactive: 0.141%
Cc1nnsc1C(=O)N[C@H]1CCN(C(=O)c2ccco2)[C@H](C(=O)N[C@H](Cc2c[nH]c3ccccc23)C(N)=O)C1 | inactive: -8.65%
O=C(NCCc1ccccc1)N1CC(c2noc(C3CCCN3CC3CC3)n2)C1 (stereo not drawn) | inactive: -2.11%
O=C(c1coc(COc2ccc(F)cc2)n1)N1CCC(c2ccc(F)cc2)C1 (stereo not drawn) | inactive: 35.2%
O=C(NCC1CCOC1)C1CCN(c2nc(-c3ccccc3)nc3c2CCC3)CC1 (stereo not drawn) | inactive: 0.217%
CC(=O)N1CCN(C(=O)c2ccc3oc(-c4cccnc4C)nc3c2)CC1 | inactive: 14.2% [at 57.5 µM]
Cn1ccnc1CN[C@@H]1C[C@H](CO)[C@@H](O)[C@H]1O | inactive: -3.35% [at 77.1 µM]
CCCc1nnc([C@H]2CCN(C(=O)c3ccccc3)C2)o1 | inactive: 4.06% [at 77.1 µM]
O=C1NC2(Cc3ccccc31)CN(C(=O)c1ccccc1Cl)C2 | inactive: 0.425%
CCCCS(=O)(=O)N1C[C@@H](C(N)=O)[C@H](C2CCN(C)CC2)C1 | inactive: -2.68%
O=C(O)c1cc2c(s1)CCN(C(=O)c1ccc(F)cc1)C2 | inactive: 0.29%
COCCc1nncn1C1CCN(C(=O)c2ccc(C)s2)CC1 | inactive: 6.57%
O=C(c1nc2c(o1)CCN(Cc1cccc(F)c1)CC2)N1CCOCC1 | inactive: 6.03% [at 57.5 µM]
O=C(NCC1CCN(c2cc(-c3ccc(Cl)cc3)[nH]n2)CC1)c1ccc(=O)[nH]c1 | inactive: 14.3%
O=c1cc(-c2cccnc2)oc2c(NCc3ccc(F)cc3)nccc12 | inactive: 12.8% [at 57.5 µM]
COc1ccc(C(=O)N2CC(CO)C3(CCNCC3)C2)cc1 (stereo not drawn) | inactive: 1.56%
Cc1ccc(CNC(=O)C2CCCN(c3cnn(Cc4ccccc4)c(=O)c3)C2)o1 (stereo not drawn) | inactive: 0.686%

Shown as tab-separated lines: three of the compounds above.
SMILES	activity % (negative = inhibition)
O=C(O)c1cc2c(s1)CCN(C(=O)c1ccc(F)cc1)C2	inactive: 0.29%
COCCc1nncn1C1CCN(C(=O)c2ccc(C)s2)CC1	inactive: 6.57%
O=C(c1nc2c(o1)CCN(Cc1cccc(F)c1)CC2)N1CCOCC1	inactive: 6.03% [at 57.5 µM]

Remaining list, next part.

SMILES | activity % (negative = inhibition)
O=C(NC1CC1)[C@@H]1C[C@H](Oc2cccnc2)CN1C(=O)c1ccccn1 | inactive: -0.158%
COc1ccccc1CN[C@H]1CC(C)(C)[C@@H]2C[C@@](C)(O)CC[C@]12CCC(=O)NCCc1c[nH]c2ccccc12 | inactive: 1.27%
CN(c1ccccc1)S(=O)(=O)C1CCS(=O)(=O)C1 (stereo not drawn) | inactive: 0.0041%
O=c1cc(N2CCOCC2)oc2c(N3CCN(c4ccccn4)CC3)nccc12 | inactive: 6.49% [at 57.5 µM]
COCC1(CNS(=O)(=O)c2ccc(Cl)cc2)C[C@@H](O)[C@@H](O)C1 (stereo partly drawn) | inactive: 7.96% [at 57.5 µM]
CCNc1ncc(C(=O)N[C@H](C2CCNCC2)C2CC(O)C2)cn1 (stereo partly drawn) | inactive: 21.5%
CC[C@@]1(C(=O)O)C[C@H](C(=O)N(C)CCO)[C@H](c2ccc(F)cc2)N1C | inactive: 3.26%
O=C1NC2(CCN(Cc3ccsc3)C2)COc2ccccc21 (stereo not drawn) | inactive: 2.92% [at 57.5 µM]
O=C(c1ccc[nH]c1=O)N1CC(F)(F)C[C@H]1c1nc(C2CC2)no1 | inactive: 16.2%
Cc1nn2c(c1-c1ccccc1Oc1ccccc1)N(C(=O)c1cccc(C#N)c1)CCC2 | inactive: 4.65% [at 57.5 µM]
COCc1nncn1C1CCN(S(=O)(=O)c2ccc(Br)cc2)CC1 | inactive: 0.872%
O=C1[C@H]2CN(Cc3c[nH]c4ccccc34)C[C@H]2C(=O)N1CCc1ccccc1 | inactive: -3.06%
CCn1c(CN(C)C)nnc1C1CCN(Cc2ccc(-n3ccnc3)cc2)CC1 | inactive: -0.901%
COCc1ncc(C)n1CC1CCN(C(=O)C2(c3ccc(OC)cc3)CC2)CC1 | inactive: -6.4%
O=C(C[C@@H]1CCNC[C@@H]1Cc1cc(CC2CCCCC2)on1)NC1CCCCC1 | inactive: 1.72% [at 57.5 µM]
Cc1cnc(C2CCNC2)n1Cc1ccccc1 (stereo not drawn) | inactive: 8.99%
COCCn1c(C)cnc1CC1CCCN(S(=O)(=O)c2cccc(F)c2)C1 (stereo not drawn) | inactive: 7.14%
COCCN(C)C[C@H]1C[C@H](CO)CN(C(=O)c2cc3ccccc3s2)C1 | inactive: 14.6%
O=S(=O)(NCCc1noc(-c2ccccc2)n1)c1ccc(Cl)cc1 | inactive: 0.742%
CSCc1ccc(C(=O)N2CCN(c3ccc(C)cc3)C(=O)C2)o1 | inactive: 42.7%
COCc1noc(CCNC(=O)C2CC3(CCNCC3)CN2)n1 (stereo not drawn) | inactive: 7.45%
O=C(c1ccco1)N1c2ccccc2CC1c1nnc(C2CCOCC2)o1 (stereo not drawn) | inactive: 12.2%
COCC1CN(C)CC12CCN(S(=O)(=O)Cc1ccc(F)cc1)CC2 (stereo not drawn) | inactive: -8.48%
CCS(=O)(=O)N1CCCCCCNC(=O)[C@@H]2C[C@@H](C(=O)N3CCc4ccccc4C3)C[C@@H]21 | inactive: 5.38%
O=C(O)C[C@@H]1CCN(C(=O)C2CCCC2)C[C@@H]1CCN1CCCCC1 | inactive: 19.5% [at 57.5 µM]
COc1cccc(COC2CN(C(=O)CCn3nccc3C)CC(=O)N(Cc3ccccn3)C2)c1 (stereo not drawn) | inactive: 7.64%
